The supplement of paper PMC10849652
This is one part of the list.

Sequences of proteins named here, by UniProt entry; tags and fusion partners are left off. A change or cut given only in a name is not applied to a line headed by its entry.
UniProt P0CAP2, whole entry, looked up: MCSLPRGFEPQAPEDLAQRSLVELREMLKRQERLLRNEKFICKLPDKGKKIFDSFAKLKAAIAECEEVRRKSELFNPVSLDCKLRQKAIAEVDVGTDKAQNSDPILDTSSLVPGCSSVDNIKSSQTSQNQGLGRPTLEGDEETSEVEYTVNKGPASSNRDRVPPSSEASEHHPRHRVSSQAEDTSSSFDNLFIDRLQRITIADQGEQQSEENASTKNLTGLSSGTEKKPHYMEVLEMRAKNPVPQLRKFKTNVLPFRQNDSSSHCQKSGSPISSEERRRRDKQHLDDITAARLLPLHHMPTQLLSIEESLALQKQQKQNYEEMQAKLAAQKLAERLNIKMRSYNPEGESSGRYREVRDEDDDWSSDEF
UniProt Q9BY77: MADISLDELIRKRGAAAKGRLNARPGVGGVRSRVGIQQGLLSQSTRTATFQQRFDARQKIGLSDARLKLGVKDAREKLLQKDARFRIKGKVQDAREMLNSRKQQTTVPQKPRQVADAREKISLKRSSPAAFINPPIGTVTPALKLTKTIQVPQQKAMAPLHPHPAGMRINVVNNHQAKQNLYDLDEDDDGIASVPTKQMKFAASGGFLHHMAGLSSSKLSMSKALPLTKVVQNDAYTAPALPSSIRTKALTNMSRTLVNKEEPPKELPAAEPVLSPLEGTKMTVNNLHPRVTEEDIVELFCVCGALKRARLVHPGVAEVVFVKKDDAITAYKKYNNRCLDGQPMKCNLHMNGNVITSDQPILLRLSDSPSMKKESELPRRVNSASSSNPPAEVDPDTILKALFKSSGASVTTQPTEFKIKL
UniProt Q9HAB8: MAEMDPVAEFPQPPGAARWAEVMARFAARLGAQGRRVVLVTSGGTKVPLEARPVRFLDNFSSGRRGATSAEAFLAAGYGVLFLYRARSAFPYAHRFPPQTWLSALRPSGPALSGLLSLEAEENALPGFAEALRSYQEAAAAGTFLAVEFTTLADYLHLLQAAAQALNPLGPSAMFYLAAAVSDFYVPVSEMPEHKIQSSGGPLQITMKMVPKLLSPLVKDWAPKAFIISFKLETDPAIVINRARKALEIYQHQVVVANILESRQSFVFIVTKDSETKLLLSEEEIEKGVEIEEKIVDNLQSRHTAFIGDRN
UniProt Q9NRF9: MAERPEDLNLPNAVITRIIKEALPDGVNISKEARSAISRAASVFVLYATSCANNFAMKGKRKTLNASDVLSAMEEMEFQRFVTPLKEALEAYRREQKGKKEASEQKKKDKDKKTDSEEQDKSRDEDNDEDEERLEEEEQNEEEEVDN
UniProt Q15181: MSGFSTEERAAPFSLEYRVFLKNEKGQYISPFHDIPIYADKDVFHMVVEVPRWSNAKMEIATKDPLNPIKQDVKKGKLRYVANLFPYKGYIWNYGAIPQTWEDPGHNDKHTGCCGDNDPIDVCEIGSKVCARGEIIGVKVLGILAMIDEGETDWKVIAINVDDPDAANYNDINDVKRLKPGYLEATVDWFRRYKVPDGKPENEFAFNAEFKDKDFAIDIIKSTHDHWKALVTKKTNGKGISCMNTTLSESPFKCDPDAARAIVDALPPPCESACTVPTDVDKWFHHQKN
UniProt O14802: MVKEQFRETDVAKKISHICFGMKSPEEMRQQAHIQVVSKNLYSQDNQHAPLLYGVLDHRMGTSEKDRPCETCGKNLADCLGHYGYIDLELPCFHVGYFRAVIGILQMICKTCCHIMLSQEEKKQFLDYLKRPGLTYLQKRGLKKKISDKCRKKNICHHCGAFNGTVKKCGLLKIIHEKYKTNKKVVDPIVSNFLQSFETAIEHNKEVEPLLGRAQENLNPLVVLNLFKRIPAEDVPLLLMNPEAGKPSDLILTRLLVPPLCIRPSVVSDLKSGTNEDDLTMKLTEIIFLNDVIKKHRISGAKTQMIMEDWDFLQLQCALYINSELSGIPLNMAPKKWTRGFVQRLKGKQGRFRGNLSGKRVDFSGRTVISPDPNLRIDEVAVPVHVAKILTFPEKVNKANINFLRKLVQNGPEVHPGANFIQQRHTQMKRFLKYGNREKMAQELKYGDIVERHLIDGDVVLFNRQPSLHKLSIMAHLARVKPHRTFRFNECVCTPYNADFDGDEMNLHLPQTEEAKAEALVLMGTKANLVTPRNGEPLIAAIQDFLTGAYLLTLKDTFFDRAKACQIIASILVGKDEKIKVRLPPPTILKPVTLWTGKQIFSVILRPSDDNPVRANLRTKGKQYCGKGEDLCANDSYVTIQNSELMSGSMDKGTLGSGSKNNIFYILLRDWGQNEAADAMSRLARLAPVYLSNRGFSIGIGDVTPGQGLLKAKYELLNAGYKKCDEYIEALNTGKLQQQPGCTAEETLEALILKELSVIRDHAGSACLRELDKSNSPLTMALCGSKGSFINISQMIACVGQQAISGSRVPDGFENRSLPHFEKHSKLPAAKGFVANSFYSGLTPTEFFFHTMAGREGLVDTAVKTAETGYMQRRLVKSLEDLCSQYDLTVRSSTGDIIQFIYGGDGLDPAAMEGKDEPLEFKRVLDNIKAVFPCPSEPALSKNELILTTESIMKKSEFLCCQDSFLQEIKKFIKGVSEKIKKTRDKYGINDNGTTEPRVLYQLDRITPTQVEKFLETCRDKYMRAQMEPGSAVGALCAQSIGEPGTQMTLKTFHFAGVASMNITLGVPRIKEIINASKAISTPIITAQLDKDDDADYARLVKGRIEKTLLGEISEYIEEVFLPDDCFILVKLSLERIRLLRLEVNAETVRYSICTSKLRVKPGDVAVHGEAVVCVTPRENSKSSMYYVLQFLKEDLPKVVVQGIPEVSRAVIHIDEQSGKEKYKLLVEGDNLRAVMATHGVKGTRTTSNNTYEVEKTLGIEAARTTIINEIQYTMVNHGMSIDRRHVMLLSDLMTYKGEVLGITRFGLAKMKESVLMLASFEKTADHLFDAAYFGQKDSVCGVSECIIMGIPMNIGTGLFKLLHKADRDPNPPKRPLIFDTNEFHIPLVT
UniProt Q10713: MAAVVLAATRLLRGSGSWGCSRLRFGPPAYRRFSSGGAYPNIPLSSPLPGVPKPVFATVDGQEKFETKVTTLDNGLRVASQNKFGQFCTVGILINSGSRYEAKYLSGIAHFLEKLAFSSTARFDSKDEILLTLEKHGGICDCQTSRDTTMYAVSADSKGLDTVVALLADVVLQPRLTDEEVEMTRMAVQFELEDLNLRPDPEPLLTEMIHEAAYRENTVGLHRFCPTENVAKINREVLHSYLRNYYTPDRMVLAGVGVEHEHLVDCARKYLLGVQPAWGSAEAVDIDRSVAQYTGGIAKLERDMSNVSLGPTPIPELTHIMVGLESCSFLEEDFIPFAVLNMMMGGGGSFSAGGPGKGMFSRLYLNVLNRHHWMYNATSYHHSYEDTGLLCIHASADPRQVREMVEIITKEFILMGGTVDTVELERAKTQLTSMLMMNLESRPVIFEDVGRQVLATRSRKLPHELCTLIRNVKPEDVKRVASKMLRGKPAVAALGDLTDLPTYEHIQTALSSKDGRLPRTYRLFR
UniProt O15318: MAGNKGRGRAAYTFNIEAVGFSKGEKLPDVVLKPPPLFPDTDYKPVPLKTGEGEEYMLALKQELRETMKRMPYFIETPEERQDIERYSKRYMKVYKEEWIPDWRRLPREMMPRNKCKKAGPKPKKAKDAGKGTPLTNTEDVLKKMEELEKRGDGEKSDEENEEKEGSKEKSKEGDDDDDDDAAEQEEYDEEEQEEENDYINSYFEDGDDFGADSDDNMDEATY
UniProt O60664: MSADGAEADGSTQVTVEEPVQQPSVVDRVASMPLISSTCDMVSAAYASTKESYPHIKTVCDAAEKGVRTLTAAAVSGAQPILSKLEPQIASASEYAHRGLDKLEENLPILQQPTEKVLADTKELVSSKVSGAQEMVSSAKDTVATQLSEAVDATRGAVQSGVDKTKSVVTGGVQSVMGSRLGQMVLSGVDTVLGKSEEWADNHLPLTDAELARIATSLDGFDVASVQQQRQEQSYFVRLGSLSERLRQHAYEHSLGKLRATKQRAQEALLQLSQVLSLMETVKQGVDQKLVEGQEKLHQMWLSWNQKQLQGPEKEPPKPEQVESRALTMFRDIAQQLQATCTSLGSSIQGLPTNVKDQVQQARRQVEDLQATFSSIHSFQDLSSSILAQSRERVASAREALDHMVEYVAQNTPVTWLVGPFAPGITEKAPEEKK
UniProt Q6PFW1: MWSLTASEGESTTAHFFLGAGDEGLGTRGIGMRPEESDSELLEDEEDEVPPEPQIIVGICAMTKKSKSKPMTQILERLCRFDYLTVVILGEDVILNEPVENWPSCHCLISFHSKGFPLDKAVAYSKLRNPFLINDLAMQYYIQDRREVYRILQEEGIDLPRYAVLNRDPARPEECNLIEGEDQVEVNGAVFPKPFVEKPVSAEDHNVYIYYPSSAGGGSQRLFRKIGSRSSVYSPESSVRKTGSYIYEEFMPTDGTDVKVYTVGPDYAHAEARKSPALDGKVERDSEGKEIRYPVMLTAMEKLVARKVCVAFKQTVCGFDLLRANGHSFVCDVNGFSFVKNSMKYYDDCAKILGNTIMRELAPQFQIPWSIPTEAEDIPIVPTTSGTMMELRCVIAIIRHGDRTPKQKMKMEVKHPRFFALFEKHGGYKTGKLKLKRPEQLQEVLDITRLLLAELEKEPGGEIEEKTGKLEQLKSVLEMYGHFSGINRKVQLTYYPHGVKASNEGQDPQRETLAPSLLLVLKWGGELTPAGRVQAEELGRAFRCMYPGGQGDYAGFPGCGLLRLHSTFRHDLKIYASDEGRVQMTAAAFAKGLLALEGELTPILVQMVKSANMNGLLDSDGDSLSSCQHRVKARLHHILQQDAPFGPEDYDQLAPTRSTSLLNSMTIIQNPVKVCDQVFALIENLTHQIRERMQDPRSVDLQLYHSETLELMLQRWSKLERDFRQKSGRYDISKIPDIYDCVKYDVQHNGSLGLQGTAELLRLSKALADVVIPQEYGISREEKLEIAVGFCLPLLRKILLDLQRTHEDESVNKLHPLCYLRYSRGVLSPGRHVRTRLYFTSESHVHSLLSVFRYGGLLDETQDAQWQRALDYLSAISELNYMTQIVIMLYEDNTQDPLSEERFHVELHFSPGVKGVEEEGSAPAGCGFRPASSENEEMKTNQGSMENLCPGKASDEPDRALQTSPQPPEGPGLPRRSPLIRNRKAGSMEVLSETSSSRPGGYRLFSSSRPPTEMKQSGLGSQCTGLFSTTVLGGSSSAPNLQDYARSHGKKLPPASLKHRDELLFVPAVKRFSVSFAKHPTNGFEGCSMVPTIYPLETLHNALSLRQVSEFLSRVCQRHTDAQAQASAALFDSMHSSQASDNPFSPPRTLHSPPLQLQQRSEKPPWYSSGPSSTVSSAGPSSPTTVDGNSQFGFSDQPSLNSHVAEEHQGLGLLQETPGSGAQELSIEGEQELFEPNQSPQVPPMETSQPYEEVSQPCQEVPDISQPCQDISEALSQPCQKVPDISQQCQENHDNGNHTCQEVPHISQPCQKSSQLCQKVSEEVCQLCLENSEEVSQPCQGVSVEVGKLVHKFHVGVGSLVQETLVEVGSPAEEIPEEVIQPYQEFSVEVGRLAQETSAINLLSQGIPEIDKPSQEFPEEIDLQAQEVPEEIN
UniProt Q02809: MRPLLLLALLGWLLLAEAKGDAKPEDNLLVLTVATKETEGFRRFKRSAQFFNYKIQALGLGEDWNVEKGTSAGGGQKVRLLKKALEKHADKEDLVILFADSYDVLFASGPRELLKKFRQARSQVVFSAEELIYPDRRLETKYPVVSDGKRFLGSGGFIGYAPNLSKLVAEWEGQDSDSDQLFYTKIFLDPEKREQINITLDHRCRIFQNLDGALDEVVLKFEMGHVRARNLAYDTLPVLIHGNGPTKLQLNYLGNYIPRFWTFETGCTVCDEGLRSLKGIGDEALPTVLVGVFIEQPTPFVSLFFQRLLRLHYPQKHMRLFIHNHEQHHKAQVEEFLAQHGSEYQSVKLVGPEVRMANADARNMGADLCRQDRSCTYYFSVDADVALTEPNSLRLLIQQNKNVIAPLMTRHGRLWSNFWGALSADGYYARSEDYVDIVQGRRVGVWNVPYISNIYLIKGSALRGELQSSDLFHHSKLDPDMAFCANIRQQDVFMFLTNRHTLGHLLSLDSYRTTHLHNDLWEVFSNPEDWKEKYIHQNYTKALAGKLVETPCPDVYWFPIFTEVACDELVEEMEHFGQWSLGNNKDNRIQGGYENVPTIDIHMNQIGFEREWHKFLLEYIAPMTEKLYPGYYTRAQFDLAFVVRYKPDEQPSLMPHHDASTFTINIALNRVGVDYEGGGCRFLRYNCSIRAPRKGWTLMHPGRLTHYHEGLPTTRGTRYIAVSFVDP
UniProt Q9Y2Y1: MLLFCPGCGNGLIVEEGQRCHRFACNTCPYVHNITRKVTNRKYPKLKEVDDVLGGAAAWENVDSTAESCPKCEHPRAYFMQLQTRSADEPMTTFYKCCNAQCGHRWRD
UniProt Q9Y3C6: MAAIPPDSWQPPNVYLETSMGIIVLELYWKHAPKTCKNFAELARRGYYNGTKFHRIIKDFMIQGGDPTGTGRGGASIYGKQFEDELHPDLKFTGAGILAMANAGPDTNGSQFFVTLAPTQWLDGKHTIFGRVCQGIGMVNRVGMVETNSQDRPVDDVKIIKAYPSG

The targets below were run with CCN(CCCOc1ccc2c(Nc3cc(CC(=O)Nc4cccc(F)c4)[nH]n3)ncnc2c1)CCOP(=O)(O)O [barasertib] (assay: log2 fold change, soluble protein after heating vs DMSO (PISA); higher = thermal stabilisation; K562 cells, 10 uM, 30 min; active = over 0.2 and 3.5 SD of the protein, either way, in both replicates (recomputed)).
Outline: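 Soluble protein was quantified by TMTpro 16plex LC-MS/MS after channel sums were equalised. It was obtained as the supernatant after 21,000xg for 90 min from pooled aliquots of K562 cells (2×10^6 cells/mL, 10 μM compound, 30 min) heated for 3 min across 48°C-58°C and extracted in PBS with 0.5% NP-40 at 4°C. Thermal stability values are relative to control samples and come from duplicates. They are given as log2 fold changes.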

log2 fold change, inactive:
POLR2M (UniProt P0CAP2) -0.009, POLDIP3 (UniProt Q9BY77) -0.065, PPIH (UniProt O43447) 0.025, PPCS (UniProt Q9HAB8) 0.051, PPM1A isoform 3 (UniProt P35813) 0.074, POLR3B (UniProt Q9NW08) 0.114, POLE3 (UniProt Q9NRF9) 0.008, PPA1 (UniProt Q15181) 0.007, POLD3 (UniProt Q15054) 0.006, PPIL4 (UniProt Q8WUA2) 0, POGLUT2 (UniProt Q6UW63) 0.001, POLA1 (UniProt P09884) 0.098, POP1 (UniProt Q99575) -0.042, POLR1A (UniProt O95602) 0.016, PPFIA2 (UniProt O75334) 0.033, PPFIA1 (UniProt Q13136) 0.035, POLR3A (UniProt O14802) 0.015, PMPCA (UniProt Q10713) -0.027, POLR3G (UniProt O15318) 0.038, PLIN3 (UniProt O60664) -0.009, POMP (UniProt Q9Y244) 0.054, PPIP5K1 (UniProt Q6PFW1) -0.025, PLSCR1 (UniProt O15162) -0.104, PPCDC (UniProt Q96CD2) 0.057, PMM2 (UniProt O15305) 0.003, PLS3 (UniProt P13797) -0.01, POTEF (UniProt A5A3E0) -0.018, PLOD1 isoform 2 (UniProt Q02809) -0.036, POLR3K (UniProt Q9Y2Y1) 0.003, PNPLA8 (UniProt Q9NP80) 0.066, POLR2B (UniProt P30876) 0.008, PPIL1 (UniProt Q9Y3C6) 0.033
